Reference: patent US20130309184A1, “1,3-DIOXAN-5-ONE COMPOUNDS” (MERCK PATENT GMBH, priority 2011, published 2013)

Test system: human stratum corneum
Assay: Skin colouring test
[1] = dyed skin stored in water for one week

For `CCCCN(CCCC)c1ccc(/C=C2\OC(C)(OCC)O/C(=C\c3ccc(N(CCCC)CCCC)cc3)C2=O)cc1` (stereo not shown) [Example 8, (4Z,6Z)-4,6-bis[[(4-dibutylamino)phenyl]methylene]-2-ethoxy-2-methyl-1,3-dioxan-5-one], the “colour of the piece of skin after incubation” value (0.6% solution, 48 h, tetrahydrofuran/ethylene glycol/phosphate buffer pH6=50/47/3) was “intense orange-red colour”, the “visual colour impression after storage in water” value [1] was “fully retained” and the “washing-out of the colour” value [1] was “No noticeable washing-out”. For the same compound, the “change in colour after simulated sunlight compared with sample stored in the dark” value (solar simulator (Atlas CPS+), twice for one hour, 500 Wm2) was “no visually perceptible change in colour”.
